# Data from PubChem BioAssay AID504327 (National Center for Advancing Translational Sciences (NCATS), 2011).
# Chains of the proteins cited; added tags and fusions are not shown.
# UniProt Q92830, whole entry, looked up: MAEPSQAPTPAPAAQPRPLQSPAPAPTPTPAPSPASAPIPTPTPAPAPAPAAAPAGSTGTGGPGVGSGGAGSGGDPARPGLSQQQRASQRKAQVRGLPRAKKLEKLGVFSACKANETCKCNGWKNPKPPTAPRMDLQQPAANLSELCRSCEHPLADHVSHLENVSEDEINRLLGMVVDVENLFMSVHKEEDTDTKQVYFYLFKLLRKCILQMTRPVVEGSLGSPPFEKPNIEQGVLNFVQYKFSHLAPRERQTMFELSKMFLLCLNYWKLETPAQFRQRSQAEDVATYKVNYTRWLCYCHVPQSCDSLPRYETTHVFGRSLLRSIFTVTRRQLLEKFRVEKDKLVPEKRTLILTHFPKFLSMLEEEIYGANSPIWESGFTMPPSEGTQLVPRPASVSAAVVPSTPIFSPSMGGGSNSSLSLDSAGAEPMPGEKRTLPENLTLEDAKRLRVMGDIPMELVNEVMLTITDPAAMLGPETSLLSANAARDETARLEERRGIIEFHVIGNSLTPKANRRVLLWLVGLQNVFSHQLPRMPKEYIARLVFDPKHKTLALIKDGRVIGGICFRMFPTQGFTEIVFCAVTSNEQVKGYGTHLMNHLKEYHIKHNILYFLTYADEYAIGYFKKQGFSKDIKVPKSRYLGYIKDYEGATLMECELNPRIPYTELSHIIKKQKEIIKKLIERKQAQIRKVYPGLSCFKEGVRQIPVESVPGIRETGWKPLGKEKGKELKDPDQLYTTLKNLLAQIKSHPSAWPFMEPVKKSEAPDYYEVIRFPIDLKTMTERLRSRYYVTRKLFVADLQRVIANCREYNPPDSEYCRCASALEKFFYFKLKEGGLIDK
# Hit rate of the full screen: of about 390,000 compounds, about 820 (0.21%) were called active. The shares of active, inactive and inconclusive entries below differ from those in the screen. Calls follow the shape of the dose curve; as a rule, active = well fitted inhibition curve with a large enough effect; inconclusive = small, poorly fitted or top-dose-only effect, or another doubt; inactive = no such curve, though single readings can be large or run the other way. Potencies beside an inconclusive call are fits to weak or partial responses and may not hold up.
# Biological target: Histone acetyltransferase KAT2A (Homo sapiens) (UniProt Q92830)
# Assay: qHTS Assay for Inhibitors of GCN5L2
# Conditions: GCN5L2 HAT assay, ThioGlo1 CoA-SH fluorescence; series mostly up to 58.9 µM
# Outline: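 qHTS, 1536-well. 20nM enzyme, pH 7.5 HEPES/EDTA/Tween-20 buffer; 15 min compound preinc., RT. Start: 75uM H3(1-25), 70uM AcCoA, 50uM ThioGlo1. Read Ex340/Em540 at t=0 (autofluorescence flag) and t=20 min.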
# Potency is read from the fitted curve at half-maximal effect.
row,SMILES,Potency
1,Cc1ccc(Cn2nnc3c(=O)[nH]c(C4CCN(C(=O)c5cccs5)CC4)nc32)cc1,"inconclusive: 8.91 µM [inhibitor, single point]"
2,Cc1ccc(C(=O)NC(=S)Nc2ccccc2C(F)(F)F)cc1,"inconclusive: 31.6 µM [inhibitor, single point]"
3,CCn1c(SCC(=O)NC2CC2)nnc1-c1cccc(OC)c1,"inconclusive: 8.91 µM [inhibitor, single point]"
4,CCCc1cc(=O)oc2c(CN3CCN(C)CC3)c(O)c(Cl)cc12,"inconclusive: 35.5 µM [inhibitor, single point]"
5,COCCNc1nc(-c2ccc(N(C)C)cc2)nc2ccccc12,inactive
6,COc1ccc(C(=O)OCC(=O)Nc2ncc([N+](=O)[O-])s2)cc1OC,"inconclusive: 25.1 µM [inhibitor, single point]"
7,C[C@H]1c2cccc(O)c2C(=O)C2C(=O)C3(O)C(=O)C(C(N)=O)C(=O)[C@@H](N(C)C)[C@@H]3[C@@H](O)[C@@H]21 (stereo partly drawn),inactive
8,Cc1cc(N(C)Cc2ccccc2)n2nc(-c3ccc(C(C)(C)C)cc3)nc2n1,inactive
9,C/C(=N\NC(=S)NC(C)C)c1ccc(Cl)c([N+](=O)[O-])c1,"inconclusive: 39.8 µM [inhibitor, single point]"
10,CCCc1cc(=O)[nH]c(SCc2cc(Cl)ccc2OC(F)F)n1,"inconclusive: 17.8 µM [inhibitor, single point]"
11,Cc1ccc(S(=O)(=O)c2c(C)cc(C)nc2Oc2cccc(C)c2C)cc1,"inconclusive: 8.91 µM [inhibitor, single point]"
12,O=C(CCNC(=O)C1CCN(S(=O)(=O)c2ccccc2)CC1)NCc1ccc(Cl)cc1,"inconclusive: 0.398 µM [inhibitor, full curve, poor fit]"
13,COc1ccc(OCCn2nnc3sc4c(c3c2=O)CCC(C(C)(C)C)C4)cc1 (stereo not drawn),"inconclusive: 22.4 µM [inhibitor, partial curve, poor fit]"
14,CC(=O)Nc1ccc(OCCOc2ccc(/C=C3\C(=N)N4N=C(C)SC4=NC3=O)cc2)cc1,inactive
15,O=C1NC(O)=NC1(c1ccccc1)c1ccccc1,"inconclusive: 39.8 µM [inhibitor, single point]"
16,c1ccc2c(c1)SCc1c-2[nH]c2ccccc12,active: 22.4 µM
17,CSc1nnc(C)c(/C=C/NOCc2cccc(F)c2)n1,"inconclusive: 6.31 µM [inhibitor, full curve]"
18,Cc1cc(=O)oc2cc3c(cc12)OCCN3,"inconclusive: 20 µM [inhibitor, partial curve]"
19,Nn1c(-c2cccc(Br)c2)n[nH]c1=S,"inconclusive: 39.8 µM [inhibitor, single point]"
20,CCCCn1c(-c2ccco2)nc2ccccc2c1=O,"inconclusive: 8.91 µM [inhibitor, single point]"
21,CC(=O)c1ccc(C(=O)N2CCCC(C(=O)c3cc(F)ccc3F)C2)s1 (stereo not drawn),"inconclusive: 8.91 µM [inhibitor, single point]"
22,CCOc1ccccc1N(C)C(=O)C1CCCN(c2ncnc3onc(-c4ccc(F)cc4)c23)C1 (stereo not drawn),inactive
23,CC1CCCCC1NC(=O)COC(=O)c1ccc2c(=O)n3c(nc2c1)CCC3 (stereo not drawn),"inconclusive: 31.6 µM [inhibitor, single point]"

# 18 structures from above, ordered by SMILES length, low to high:
row,SMILES,Potency
18,Cc1cc(=O)oc2cc3c(cc12)OCCN3,"inconclusive: 20 µM [inhibitor, partial curve]"
19,Nn1c(-c2cccc(Br)c2)n[nH]c1=S,"inconclusive: 39.8 µM [inhibitor, single point]"
20,CCCCn1c(-c2ccco2)nc2ccccc2c1=O,"inconclusive: 8.91 µM [inhibitor, single point]"
15,O=C1NC(O)=NC1(c1ccccc1)c1ccccc1,"inconclusive: 39.8 µM [inhibitor, single point]"
17,CSc1nnc(C)c(/C=C/NOCc2cccc(F)c2)n1,"inconclusive: 6.31 µM [inhibitor, full curve]"
5,COCCNc1nc(-c2ccc(N(C)C)cc2)nc2ccccc12,inactive
2,Cc1ccc(C(=O)NC(=S)Nc2ccccc2C(F)(F)F)cc1,"inconclusive: 31.6 µM [inhibitor, single point]"
10,CCCc1cc(=O)[nH]c(SCc2cc(Cl)ccc2OC(F)F)n1,"inconclusive: 17.8 µM [inhibitor, single point]"
4,CCCc1cc(=O)oc2c(CN3CCN(C)CC3)c(O)c(Cl)cc12,"inconclusive: 35.5 µM [inhibitor, single point]"
9,C/C(=N\NC(=S)NC(C)C)c1ccc(Cl)c([N+](=O)[O-])c1,"inconclusive: 39.8 µM [inhibitor, single point]"
11,Cc1ccc(S(=O)(=O)c2c(C)cc(C)nc2Oc2cccc(C)c2C)cc1,"inconclusive: 8.91 µM [inhibitor, single point]"
6,COc1ccc(C(=O)OCC(=O)Nc2ncc([N+](=O)[O-])s2)cc1OC,"inconclusive: 25.1 µM [inhibitor, single point]"
8,Cc1cc(N(C)Cc2ccccc2)n2nc(-c3ccc(C(C)(C)C)cc3)nc2n1,inactive
12,O=C(CCNC(=O)C1CCN(S(=O)(=O)c2ccccc2)CC1)NCc1ccc(Cl)cc1,"inconclusive: 0.398 µM [inhibitor, full curve, poor fit]"
1,Cc1ccc(Cn2nnc3c(=O)[nH]c(C4CCN(C(=O)c5cccs5)CC4)nc32)cc1,"inconclusive: 8.91 µM [inhibitor, single point]"
22,CCOc1ccccc1N(C)C(=O)C1CCCN(c2ncnc3onc(-c4ccc(F)cc4)c23)C1 (stereo not drawn),inactive
14,CC(=O)Nc1ccc(OCCOc2ccc(/C=C3\C(=N)N4N=C(C)SC4=NC3=O)cc2)cc1,inactive
7,C[C@H]1c2cccc(O)c2C(=O)C2C(=O)C3(O)C(=O)C(C(N)=O)C(=O)[C@@H](N(C)C)[C@@H]3[C@@H](O)[C@@H]21 (stereo partly drawn),inactive

# Following part

row,SMILES,Potency
1,COc1ccccc1N(C)C(=O)c1cc(S(=O)(=O)N2CCCC2)cn1C,"inconclusive: 31.6 µM [inhibitor, single point]"
2,CCCCCC1C(=O)C[C@@H]2CCN3C(=O)CCC[C@H]1[C@H]23 (stereo partly drawn),"inconclusive: 15.8 µM [inhibitor, partial curve]"
3,CC(=O)Nc1ccccc1O,inactive
4,COC(=O)c1ccc(C)c(NC(=O)CCSc2ccc(Cl)cc2)c1,"inconclusive: 1.58 µM [inhibitor, full curve, poor fit]"
5,CCC1OC23CCCCC2C(C#N)(C(=N)O3)C1(C#N)C#N (stereo not drawn),"inconclusive: 7.08 µM [inhibitor, single point]"
6,CCOc1ccc(C=NNc2ccc(S(=O)(=O)Nc3ccccc3C(=O)O)cc2[N+](=O)[O-])cc1,"inconclusive: 28.2 µM [inhibitor, single point]"
8,COc1ccc2o/c(=N/NC(=S)Nc3ccccc3)c(C(N)=O)cc2c1,inactive
9,CCOC(=O)C1CN(S(=O)(=O)c2ccccc2)c2cc(S(=O)(=O)CC)ccc2O1 (stereo not drawn),"inconclusive: 0.126 µM [inhibitor, partial curve, poor fit]"
10,Cn1cccc1Cc1nnc(SCC(=O)Nc2ccccc2)n1-c1ccc(F)cc1,inactive
11,COC(=O)CN1C(=O)C2(C(C#N)=C(N)Oc3ccccc32)C2=C1CC(C)(C)CC2=O (stereo not drawn),"inconclusive: 39.8 µM [inhibitor, single point]"
12,Cc1ccc(C)n1-c1nnc(N2CCC(C(=O)NCCCN3CCN(C)CC3)CC2)s1,"inconclusive: 5.01 µM [inhibitor, single point]"
13,Cc1[nH]c2ccccc2c1C(=O)COC(=O)C1CC(=O)N(Cc2ccco2)C1 (stereo not drawn),inactive
14,Cc1cc(C)n(C(=O)CNC(=O)c2ccc3c(c2)OCCO3)n1,"inconclusive: 0.891 µM [inhibitor, single point]"
15,CC1=NN(c2cccc(C(=O)O)c2)C(=O)/C1=C\C=C\c1ccco1,"inconclusive: 22.4 µM [inhibitor, partial curve]"
16,CCOC(=O)C1=C(C)NC(=S)NC1c1ccc(-c2ccc(Cl)cc2)o1 (stereo not drawn),inactive
17,COc1ccc(OCC(=O)Nc2cc(-c3cccc(Cl)c3)nn2-c2ccccc2)cc1,inactive
18,COc1ccc(C2=NS(=O)(=O)N(C)C(C(=O)N3CCOCC3)=C2)cc1OC,"inconclusive: 0.708 µM [inhibitor, single point]"
19,COc1ccc(-c2noc(N3CCCC(C(=O)Nc4cc(F)ccc4F)C3)n2)cc1 (stereo not drawn),"inconclusive: 28.2 µM [inhibitor, single point]"
20,O=c1oc2c(CN3CCN(CCO)CC3)c(O)ccc2cc1-c1ccccn1,"inconclusive: 25.1 µM [inhibitor, partial curve]"
21,O=C(Nc1cccc(F)c1)N1CCC2(CCNCC2)CC1,inactive
22,CC1=C(C(=O)Nc2ccc(C(=O)N3CCN(c4ccccc4F)CC3)cc2)SCCO1,"inconclusive: 0.141 µM [inhibitor, full curve, poor fit]"
23,C#CCSc1n[nH]c(=O)n1-c1cccc(C(F)(F)F)c1,"inconclusive: 8.91 µM [inhibitor, single point]"

row,SMILES,Potency
1,COc1ccc(C(=O)c2ccc(Cl)cc2Cl)cc1,inactive
2,Cc1ccc(N(CC(=O)NCc2ccccn2)S(=O)(=O)c2ccccc2)cc1Cl,"inconclusive: 0.631 µM [inhibitor, full curve, poor fit]"
3,COc1ccc(Cl)cc1NS(=O)(=O)c1cccc2cccnc12,"inconclusive: 39.8 µM [inhibitor, single point]"
4,CCOC(=O)c1c(C)oc2ncnc(NCCc3ccccc3)c12,inactive
5,Cc1ccc2ncnc(NCCCN3CCOCC3)c2c1,"inconclusive: 39.8 µM [inhibitor, single point]"
6,COc1ccccc1/C=C/C=N/NC(=O)c1cnccn1,"inconclusive: 28.2 µM [inhibitor, partial curve]"
7,CCOC(=O)c1c(NC(=O)CSc2nnnn2-c2ccccc2)sc2c1CC(C)(C)NC2(C)C,inactive
8,COc1ccc(CCNC(=O)c2cc(Sc3cccc(Cl)c3)nc3ccccc23)cc1OC,"inconclusive: 39.8 µM [inhibitor, single point]"
9,CCOC(=O)c1cnc2ccc(C(=O)OC)cc2c1Nc1ccc2c(c1)OCCO2,inactive
10,O=C(CNC(=O)c1ccccc1Cl)N/N=C/C=C/c1ccccc1,"inconclusive: 35.5 µM [inhibitor, single point]"
11,O=C(CC12CC3CC(CC(C3)C1)C2)NCC(=O)OCc1cc(=O)oc2ccc3ccccc3c12,"inconclusive: 20 µM [inhibitor, single point]"
12,COc1ccc([C@@H]2CC=C(C(=O)O)[C@H](c3ccc(C)cc3)N2S(=O)(=O)c2ccc(C)cc2)cc1OC,inactive
13,CCCCNc1ccc(S(N)(=O)=O)cc1[N+](=O)[O-],inactive
14,N#CC1=C2SCN(C3CCCCC3)CN2C(=O)CC1c1ccc(F)cc1 (stereo not drawn),"inconclusive: 25.1 µM [inhibitor, partial curve]"
15,COC(=O)c1ccc(COC(=O)CNS(=O)(=O)c2ccccc2)cc1,"inconclusive: 31.6 µM [inhibitor, single point]"
16,C/C(=N\Nc1nc(-c2ccccc2)cs1)c1cccs1,inactive
17,Cn1c(C(=O)N2CCN(C(=O)c3ccco3)CC2)cc2c(=O)n3ccccc3nc21,"inconclusive: 31.6 µM [inhibitor, partial curve]"
18,COc1ccc(Cc2nc(-c3cccnc3)no2)cc1OC,"inconclusive: 5.01 µM [inhibitor, single point]"
19,Oc1c(Br)cc(C=Nc2ccc3nc(-c4ccccc4)[nH]c3c2)c(O)c1Br,"inconclusive: 25.1 µM [inhibitor, single point]"
20,COc1ccc(-c2cc(-c3ccc(O)cc3)nc(N)c2C#N)cc1,inactive
21,CC(C)OC(=O)CSc1nnc(-c2ccco2)n1N,"inconclusive: 39.8 µM [inhibitor, single point]"
22,O=S(=O)(N/N=C\c1cccc(F)c1)c1ccccc1,"inconclusive: 1.78 µM [inhibitor, partial curve]"
